Test results reported in paper PMC5667994.
These are yes or no findings as the source states them, for the method shown. Binding seen in cells or lysates may run through a third protein. Some binding calls cover weakened binding; strength is not graded here. Blank lines part the entries; values can stand above or below the binder they belong to.

Experiments:
[1] = biological target: T1, mammalian Ste20-like kinase 1 (MST1) (human (endogenous in A549)) (UniProt Q13043); assay: co-IP; endogenous proteins in A549 cell lysate; antibody overnight at 4 °C, protein A/G agarose beads, washed with RIPA buffer, western blot
T1 sequence: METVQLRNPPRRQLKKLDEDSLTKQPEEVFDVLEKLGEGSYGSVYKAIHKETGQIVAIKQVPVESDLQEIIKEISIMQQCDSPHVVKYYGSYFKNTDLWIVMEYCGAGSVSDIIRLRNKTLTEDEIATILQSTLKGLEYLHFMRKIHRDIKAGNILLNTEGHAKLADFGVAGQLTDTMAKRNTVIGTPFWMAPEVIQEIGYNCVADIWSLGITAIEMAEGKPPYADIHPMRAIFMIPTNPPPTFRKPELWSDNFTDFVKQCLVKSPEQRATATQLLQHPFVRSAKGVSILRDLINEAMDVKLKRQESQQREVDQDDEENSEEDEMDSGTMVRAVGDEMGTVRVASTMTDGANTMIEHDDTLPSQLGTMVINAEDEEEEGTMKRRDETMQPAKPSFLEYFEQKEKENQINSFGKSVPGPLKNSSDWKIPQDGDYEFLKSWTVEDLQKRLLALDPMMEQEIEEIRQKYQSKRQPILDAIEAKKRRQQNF

[2] = biological target: T1, mammalian Ste20-like kinase 1 (MST1) (human (endogenous in A549)); assay: co-IP; A549 cells transfected with RASSF7 or RASSF7 mutant plasmids; lysate, antibody overnight at 4 °C, protein A/G agarose beads, washed with RIPA buffer, western blot

binding [1]: binds
B1: Ras-association domain family 7 (RASSF7), endogenous (protein, UniProt Q02833 1-373)
chain: MLLGLAAMELKVWVDGIQRVVCGVSEQTTCQEVVIALAQAIGQTGRFVLVQRLREKERQLLPQECPVGAQATCGQFASDVQFVLRRTGPSLAGRPSSDSCPPPERCLIRASLPVKPRAALGCEPRKTLTPEPAPSLSRPGPAAPVTPTPGCCTDLRGLELRVQRNAEELGHEAFWEQELRREQAREREGQARLQALSAATAEHAARLQALDAQARALEAELQLAAEAPGPPSPMASATERLHQDLAVQERQSAEVQGSLALVSRALEAAERALQAQAQELEELNRELRQCNLQQFIQQTGAALPPPPRPDRGPPGTQGPLPPAREESLLGAPSESHAGAQPRPRGGPHDAELLEVAAAPAPEWCPLAAQPQAL

binding [2]: binds
B2: RASSF7, overexpressed (pCMV6-RASSF7) (protein, UniProt Q02833 1-373)
chain: B1 chain
